Small differences around the control level are noise.
Experiments:
Experiment in all cases: normalised response (% of control), CellTox Green; higher = less cell death (100 = DMSO, 0 = benzethonium chloride kill control)
Details in all cases: incubation time: 72 h
[1] = system: MCF-10A
Experimental: (§1)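 DSRT, 72 h incubation, CellTox Green / CellTiter-Glo readout. Signal is normalised to DMSO and benzethonium chloride controls. Value is the normalised response at dose 2.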

[2] = system: CAL-120
Experimental: as §1

[3] = system: HCC1937
Experimental: as §1

[4] = system: BT-549
Experimental: as §1

[5] = system: HCC1599
Experimental: as §1

[6] = system: MDA-MB-468
Experimental: as §1

[7] = system: HDQ-P1
Experimental: as §1

[8] = system: MDA-MB-453
Experimental: as §1

[9] = system: CAL-148
Experimental: as §1

[10] = system: CAL-51
Experimental: as §1

[11] = system: BT-474
Experimental: as §1

[12] = system: MFM-223
Experimental: as §1

[13] = system: DU-4475
Experimental: as §1

[14] = system: MDA-MB-231
Experimental: as §1

[15] = system: Hs578T
Experimental: as §1

[16] = system: CAL-85-1
Experimental: as §1

[17] = system: HCC1143
Experimental: as §1

[18] = system: MDA-MB-436
Experimental: as §1

| Compound | normalised response [1] | normalised response [2] | normalised response [3] | normalised response [4] | normalised response [5] | normalised response [6] | normalised response [7] | normalised response [8] | normalised response [9] | normalised response [10] | normalised response [11] | normalised response [12] | normalised response [13] | normalised response [14] | normalised response [15] | normalised response [16] | normalised response [17] | normalised response [18] |
| --- | --- | --- | --- | --- | --- | --- | --- | --- | --- | --- | --- | --- | --- | --- | --- | --- | --- | --- |
| O=C(CCCCCCC(=O)Nc1ccccc1)NO [Vorinostat] (10 nM) | 103% | 98.1% | 87.2% | 96.8% | 93.9% | 63.7% | 98.7% | 81.7% | 102% | 112% | 100% | 103% | 96.9% | 103% | 118% | 99% |  |  |
| CN(C)c1nc(N(C)C)nc(N(C)C)n1 [Altretamine] (10 nM) |  | 96.2% | 113% | 107% | 101% | 95% | 116% | 95.3% | 102% | 103% | 103% | 98.9% | 98.3% | 111% | 123% | 96.7% | 111% | 98.7% |
| Cc1cccc(-c2nn3c(c2-c2ccnc4ccc(C(N)=O)cc24)CCC3)n1 [Galunisertib] (1 nM) | 80.3% | 102% |  | 110% | 117% | 122% |  | 108% | 109% | 91.5% | 104% | 96.9% | 117% | 93.4% | 118% | 97.4% | 59.8% | 116% |
| COc1cc([C@@H]2c3cc4c(cc3[C@@H](O[C@@H]3O[C@@H]5CO[C@@H](c6cccs6)O[C@H]5[C@H](O)[C@H]3O)[C@H]3COC(=O)[C@H]23)OCO4)cc(OC)c1O [Teniposide] (10 nM) | 62.5% | 102% |  | 99.1% | 96.6% | 117% | 114% | 97.5% |  | 106% | 104% | 102% | 87.7% | 99.1% | 119% | 103% | 107% | 71.2% |
| C=CCc1cccc(/C=N/NC(=O)CN2CCN(Cc3ccccc3)CC2)c1O [PAC-1] (10 nM) | 110% | 97.7% | 116% | 97% | 101% | 78.5% | 100% | 96.9% | 53.8% | 108% | 83.6% | 77.7% | 101% | 118% |  | 98% | 97.3% | 107% |
| C[C@@]1(C(=O)Nc2ccc(F)nc2)CCCN1c1nc(Nc2cc(C3CC3)n[nH]2)c2cccn2n1 (10 nM) | 97.5% | 103% | 96.9% | 98.9% | 102% | 60.2% | 105% | 101% | 95.7% | 87.3% | 98.7% | 101% | 104% | 95.2% |  | 93.5% | 111% | 103% |
| CCNC(=O)CCC/C=C\C[C@@H]1[C@@H](/C=C/[C@@H](O)CCc2ccccc2)[C@H](O)C[C@@H]1O [Bimatoprost] (5.5 nM) | 100% | 97.9% | 100% | 100% | 101% | 79.6% | 104% | 89.9% | 102% | 83% | 99% | 99% | 99% | 99.9% | 108% | 100% | 112% |  |
| O=C(c1ccc(C(=O)N2CCC(N3CCCC3)CC2)c(Nc2ccccc2)c1)N1CCC(N2CCCC2)CC1 [UNC1215] (30 nM) | 82.1% | 90.8% | 107% | 94.9% | 96.5% | 87.6% |  |  | 100% | 76.5% | 100% | 63% | 94.4% | 95.6% |  | 105% | 107% | 81.2% |
| Oc1nc(-c2ccc(C(F)(F)F)cc2)nc2c1CSCC2 [XAV-939] (10 nM) | 99.2% | 94.8% |  | 99% | 90.9% | 141% | 112% | 101% | 68.2% | 89.7% | 102% | 102% | 101% | 95.8% | 117% | 101% | 110% | 99.5% |
| O=c1[nH]c(=O)n([C@H]2C[C@H](O)[C@@H](CO)O2)cc1F [Floxuridine] (10 nM) |  | 102% | 104% | 104% | 124% | 106% | 113% | 107% | 108% | 124% | 102% | 105% | 116% | 118% | 125% | 99.2% | 116% | 75.7% |

Source: the supplement of paper PMC4862054
